{"source": "patent US20040259791A1", "binders": {"B1": {"name": "KChAP (as used in yeast two-hybrid experiments) (protein)", "chain": "MKIKELYRRRFPRKTLGPSDLSLLSLPPGTSPVGSPGPLAPIPPTLLAPGTLLGPKREVDMHPPLPQPVHPDVTMKPLPFYEVYGELIRPTTLASTSSQRFEEAHFTFALTPQQVQQILTSREVLPGAKCDYTIQVQLRFCLCETSCPQEDYFPPNLFVKVNGKLCPLPGYLPPTKNGAEPKRPSRPINITPLARLSATVPNTIVVNWSSEFGRNYSLSVYLVRQLTAGTLLQKLRAKGIRNPDHSRALIKEKLTADPDSEVATTSLRVSLMCPLGKMRLTVPCRALTCAHLQSFDAALYLQMNEKKPTWTCPVCDKKAPYESLIIDGLFMEILSSCSDCDEIQFMEDGSWCPMKPKKEASEVCPPPGYGLDGLQYSPVQGGDPSENKKKVEVIDLTIESSSDEEDLPPTKKHCSVTSAAIPALPGSKGVLTSGHQPSSVLRSPAMGTLGGDFLSSLPLHEYPPAFPLGADIQGLDLFSFLQTESQHYGPSVITSLDEQDALGHFFQYRGTPSHFLGPLAPTLGSSHCSATPAPPPGRVSSIVAPGGALREGHGGPLPSGPSLTGCRSDIISLD"}}, "molecular_target": "p53 (UniProt P04637)", "test": "yeast two-hybrid", "note": "Results are given in words; binding and its absence hold for the method and conditions named. Some results given as binding are weak or reduced against the parent protein; the word gives no strength."}
{"binder": "B1", "values": [{"measurement": "binding", "value": "binds"}]}
